Measured values from article PMC13140700.
No constants are given. Whether binding was seen depends on the method and setting. A result given as binding can be weak or reduced; the word gives no strength.

Target: GST–TaJAZ1 (wheat (Triticum aestivum))
Test: pull-down; 10 μg GST–TaJAZ1 bound to glutathione agarose resin, incubated overnight with 10 μg His–MBP–TaMYC2 in PBS at 4°C, seven washes, immunoblot with anti-GST or anti-His; both purified

- binding: binds
Substance: His–MBP–TaMYC2 (from UniProt A0A3B5XZE8)
